These are yes or no findings as the source states them, for the method shown. Some binding calls cover weakened binding; strength is not graded here.
Columns and labels:
Assay in all cases: ELISA, SIRPa variant-mouse Fc immobilised at 0.5 ug/ml
[1] = biological target: SIRPa V7 (SNP14 + ?) recombinant protein, extracellular domain fused with mouse Fc from IgG2a (human; mouse) (UniProt P78324)
[2] = biological target: SIRPa V5 (SNP9 + 10 + 11) recombinant protein, extracellular domain fused with mouse Fc from IgG2a (human; mouse) (UniProt P78324)
[3] = biological target: SIRPa V3 (SNP1 + 2 + 3 + 4 + 5 + 6) recombinant protein, extracellular domain fused with mouse Fc from IgG2a (human; mouse) (UniProt P78324)
[4] = biological target: SIRPa V4 (SNP8) recombinant protein, extracellular domain fused with mouse Fc from IgG2a (human; mouse) (UniProt P78324)
[5] = biological target: SIRPa V6 (SNP12 + 13) recombinant protein, extracellular domain fused with mouse Fc from IgG2a (human; mouse) (UniProt P78324)

Sequences of proteins named here, by UniProt entry; tags and fusion partners are left off. A change or cut given only in a name is not applied to a line headed by its entry.
UniProt P78324: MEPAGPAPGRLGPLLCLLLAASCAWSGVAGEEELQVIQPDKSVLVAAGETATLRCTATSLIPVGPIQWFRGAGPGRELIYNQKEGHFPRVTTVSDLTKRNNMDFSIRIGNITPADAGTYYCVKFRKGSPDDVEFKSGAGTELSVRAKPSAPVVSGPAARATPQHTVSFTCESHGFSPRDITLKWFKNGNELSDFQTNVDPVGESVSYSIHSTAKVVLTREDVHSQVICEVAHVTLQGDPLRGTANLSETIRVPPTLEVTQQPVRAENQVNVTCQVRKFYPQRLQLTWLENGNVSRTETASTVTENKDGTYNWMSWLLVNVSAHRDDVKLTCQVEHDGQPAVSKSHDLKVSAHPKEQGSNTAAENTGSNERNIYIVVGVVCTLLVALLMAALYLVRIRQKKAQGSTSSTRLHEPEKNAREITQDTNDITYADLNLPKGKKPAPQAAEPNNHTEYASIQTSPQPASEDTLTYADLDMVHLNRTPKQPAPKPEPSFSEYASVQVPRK

Measured: binding

B1: in-house anti-human SIRPa v1 antibody (antibody, human IgG4, V domains shown)
VH: EVQLVQSGAEVKKPGESLRISCKASGYSFTSYWVHWVRQMPGKGLEWMGNIDPSDSDTHYSPSFQGHVTLSVDKSISTAYLQLSSLKASDTAMYYCVRGGTGTLAYFAYWGQGTLVTVSS
VL: DVVMTQSPLSLPVTLGQPASISCRSSQSLVHSYGNTYLYWFQQRPGQSPRLLIYRVSNRFSGVPDRFSGSGSGTDFTLKISRVEAEDVGVYYCFQGTHVPYTFGGGTKVEIK
binds: all assays above

Source: patent US20210040206A1
